Results: article PMC6858455

The chains behind the UniProt entries cited, without tags or fusion partners.
UniProt Q96KS0: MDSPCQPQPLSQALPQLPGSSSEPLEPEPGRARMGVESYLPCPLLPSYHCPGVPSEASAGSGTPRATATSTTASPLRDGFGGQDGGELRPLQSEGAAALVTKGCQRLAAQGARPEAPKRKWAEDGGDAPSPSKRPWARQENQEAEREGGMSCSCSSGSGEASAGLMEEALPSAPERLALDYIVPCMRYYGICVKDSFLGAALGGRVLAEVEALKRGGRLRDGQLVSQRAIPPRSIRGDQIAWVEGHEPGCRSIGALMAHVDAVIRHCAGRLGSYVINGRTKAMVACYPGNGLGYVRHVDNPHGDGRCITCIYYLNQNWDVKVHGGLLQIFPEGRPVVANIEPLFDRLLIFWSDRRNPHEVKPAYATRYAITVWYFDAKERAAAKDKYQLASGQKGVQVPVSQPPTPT

Key:
[1] = molecular target: FLAG- and HA-tagged EglN2, wild-type (WT) (UniProt Q96KS0); assay: affinity purification with mass spectrometry; TAP-TAG purification (anti-FLAG M2 gel, then HA beads) of FLAG-HA-WT EglN2 from HIF-1α-depleted MDA-MB-231 cells, normoxia or hypoxia + DMOG
GST-EglN2 = GST-EglN2 (UniProt Q96KS0); assay: affinity purification with mass spectrometry; pull-down with GST-control or GST-EglN2 beads from lysates of HIF-1α-depleted MDA-MB-231 cells, normoxia or hypoxia + DMOG, then mass spectrometry; only the target purified

B1: adenylosuccinate lyase (ADSL), endogenous (enzyme, UniProt P30566 1-484)
chain: MAAGGDHGSPDSYRSPLASRYASPEMCFVFSDRYKFRTWRQLWLWLAEAEQTLGLPITDEQIQEMKSNLENIDFKMAAEEEKRLRHDVMAHVHTFGHCCPKAAGIIHLGATSCYVGDNTDLIILRNALDLLLPKLARVISRLADFAKERASLPTLGFTHFQPAQLTTVGKRCCLWIQDLCMDLQNLKRVRDDLRFRGVKGTTGTQASFLQLFEGDDHKVEQLDKMVTEKAGFKRAFIITGQTYTRKVDIEVLSVLASLGASVHKICTDIRLLANLKEMEEPFEKQQIGSSAMPYKRNPMRSERCCSLARHLMTLVMDPLQTASVQWFERTLDDSANRRICLAEAFLTADTILNTLQNISEGLVVYPKVIERRIRQELPFMATENIIMAMVKAGGSRQDCHEKIRVLSQQAASVVKQEGGDNDLIERIQVDAYFSPIHSQLDHLLDPSSFTGRASQQVQRFLEEEVYPLLKPYESVMKVKAELCL
binding [1]: binds
binding (GST-EglN2): binds

Results are given in words; binding and its absence hold for the method and conditions named. Binding seen in cells or lysates may run through a third protein. These calls come from enrichment with a bait or labelling near it, and not all partners need be listed.
